Results: patent US20240043521A1
Residue numbers refer to the chain shown, from its start. Results are given in words; binding and its absence hold for the method and conditions named. Some binding calls cover weakened binding; strength is not graded here.

Protein sequences, listed by entry. Tags and fused reporters are not part of them. Residues count along the entry.
UniProt P07091, residues 2-101: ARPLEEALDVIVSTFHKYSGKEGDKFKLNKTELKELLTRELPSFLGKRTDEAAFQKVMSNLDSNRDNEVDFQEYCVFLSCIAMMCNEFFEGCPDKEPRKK

Experiments:
[1] = target: mouse S100A4 protein (mouse) (UniProt P07091); assay: Western blot
[2] = target: mouse S100A4 protein (mouse) (UniProt P07091); assay: immunofluorescence on wild-type MEFs
[3] = target: mouse S100A4 protein (mouse) (UniProt P07091); assay: immunofluorescence on wild-type and S100A4 knock-out MEFs

Measured: binding

B1: VH1_H40Phe VL3 (antibody, V domains shown)
VH: QVQLQESGPGLVKPSQTLSLTCTVSGDSFTNDYYWNWIRQFPGKGLEWIGHIGYGGNINYNPSLKNRLSMSRDTSKNQFSLKLSSVTAADTAVYYCTRESFYDGYPFDYWGQGTLVTVSS
VL: DIQMTQSPSSLSASVGDRVTITCRASQDIRNYLNWYQQKPGKAPKLLLYYTSRLHSGVPSRFSGSGSGTDYTLTISSLQPEDFATYYCQQGNSLPRTFGGGTKVEIK
binds: [1] | [2] | [3]

B2: VH1 VL3_L44Leu (antibody, V domains shown)
VH: B1 VH with F41H
VL: B1 VL with P44L
binds: [1] | [2] | [3]

B3: VH1_40Phe:VL3_Leu44 (antibody, V domains shown)
VH: B1 VH
VL: B1 VL with P44L
binds: [1] | [2] | [3]
